From article doi:10.1101/2024.05.15.594354
These are yes or no findings as the source states them, for the method shown. For part of these data: A result given as binding can be weak or reduced; the word gives no strength.

Protein sequences, listed by entry. Tags and fused reporters are not part of them. Lines headed by an entry give the natural chain unless they say otherwise; changes in a name come on top. Residues count along the entry.
UniProt P02769, residues 25-607: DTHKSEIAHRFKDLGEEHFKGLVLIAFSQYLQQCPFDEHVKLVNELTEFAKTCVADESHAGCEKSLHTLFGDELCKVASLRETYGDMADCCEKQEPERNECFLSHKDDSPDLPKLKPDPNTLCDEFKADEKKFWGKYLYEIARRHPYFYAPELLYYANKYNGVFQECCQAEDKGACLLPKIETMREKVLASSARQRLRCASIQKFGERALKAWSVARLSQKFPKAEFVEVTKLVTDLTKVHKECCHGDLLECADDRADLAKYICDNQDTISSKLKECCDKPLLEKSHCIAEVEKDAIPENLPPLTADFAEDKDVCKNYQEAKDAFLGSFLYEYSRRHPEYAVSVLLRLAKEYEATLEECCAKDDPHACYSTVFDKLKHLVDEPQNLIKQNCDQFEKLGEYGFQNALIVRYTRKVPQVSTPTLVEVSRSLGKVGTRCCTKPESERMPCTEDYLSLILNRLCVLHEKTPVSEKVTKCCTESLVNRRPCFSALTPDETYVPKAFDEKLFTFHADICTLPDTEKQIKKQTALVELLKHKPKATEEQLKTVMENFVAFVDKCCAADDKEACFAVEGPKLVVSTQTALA
UniProt Q9HCJ2: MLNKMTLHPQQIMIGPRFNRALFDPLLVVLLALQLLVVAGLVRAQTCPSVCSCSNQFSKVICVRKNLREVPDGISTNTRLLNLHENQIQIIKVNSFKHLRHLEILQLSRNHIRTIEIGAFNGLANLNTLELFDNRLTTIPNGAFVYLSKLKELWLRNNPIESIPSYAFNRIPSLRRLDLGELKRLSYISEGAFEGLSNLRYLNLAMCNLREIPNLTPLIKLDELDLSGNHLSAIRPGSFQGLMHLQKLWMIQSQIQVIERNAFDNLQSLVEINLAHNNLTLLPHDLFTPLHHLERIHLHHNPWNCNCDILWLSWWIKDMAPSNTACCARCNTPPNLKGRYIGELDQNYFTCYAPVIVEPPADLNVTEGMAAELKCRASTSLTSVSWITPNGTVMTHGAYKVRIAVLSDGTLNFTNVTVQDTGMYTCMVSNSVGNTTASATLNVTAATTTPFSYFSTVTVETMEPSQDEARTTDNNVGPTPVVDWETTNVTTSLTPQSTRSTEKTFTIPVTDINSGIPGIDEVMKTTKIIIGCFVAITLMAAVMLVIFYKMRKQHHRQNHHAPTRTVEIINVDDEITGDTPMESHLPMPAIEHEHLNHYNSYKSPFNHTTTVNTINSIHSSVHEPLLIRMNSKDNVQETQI

What was measured:
Experiment in all cases: ELISA
[1] = molecular target: Bovine Serum Albumin (BSA) (bovine) (UniProt P02769)
[2] = molecular target: T1, Netrin G1 (NetG1), recombinant (UniProt Q9Y2I2)
T1 sequence: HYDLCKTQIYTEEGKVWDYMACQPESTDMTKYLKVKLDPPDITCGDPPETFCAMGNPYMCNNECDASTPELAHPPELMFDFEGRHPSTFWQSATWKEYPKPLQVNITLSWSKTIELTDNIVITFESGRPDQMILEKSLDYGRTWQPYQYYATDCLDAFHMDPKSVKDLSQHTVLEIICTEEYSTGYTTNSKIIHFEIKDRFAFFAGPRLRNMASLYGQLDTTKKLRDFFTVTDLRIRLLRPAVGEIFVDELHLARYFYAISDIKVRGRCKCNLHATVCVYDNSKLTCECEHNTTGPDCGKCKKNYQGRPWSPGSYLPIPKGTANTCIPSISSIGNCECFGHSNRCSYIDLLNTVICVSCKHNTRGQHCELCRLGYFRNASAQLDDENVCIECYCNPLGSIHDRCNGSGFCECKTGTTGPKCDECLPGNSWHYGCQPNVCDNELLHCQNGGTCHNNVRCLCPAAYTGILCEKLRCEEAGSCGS

[3] = molecular target: T2, anti-NGL-1 peptide (NPYMSNNE) (human)
T2 sequence (peptide): NPYMSNNE

With “Netrin G1 Ligand (NGL-1), recombinant (from UniProt Q9HCJ2) (receptor)” as the substance, how does the binding [1] read?
Its binding is “no binding (tested: 50 nM)”.

What about the binding [2] of the same substance?
Its binding is “binds”.

And the binding [3]?
The binding was “binds”.
